Each number is a percent effect as filed. The record does not define 0% and 100%; most values in the screen are far below 50% and negative numbers occur (in some assays of this library far below -100). This is an unselected part of the compounds tested. A dash means the value is not listed here; it may have been measured.

Chains of the proteins cited; added tags and fusions are not shown. Residues count along the entry.
UniProt Q4DA54, 1-478: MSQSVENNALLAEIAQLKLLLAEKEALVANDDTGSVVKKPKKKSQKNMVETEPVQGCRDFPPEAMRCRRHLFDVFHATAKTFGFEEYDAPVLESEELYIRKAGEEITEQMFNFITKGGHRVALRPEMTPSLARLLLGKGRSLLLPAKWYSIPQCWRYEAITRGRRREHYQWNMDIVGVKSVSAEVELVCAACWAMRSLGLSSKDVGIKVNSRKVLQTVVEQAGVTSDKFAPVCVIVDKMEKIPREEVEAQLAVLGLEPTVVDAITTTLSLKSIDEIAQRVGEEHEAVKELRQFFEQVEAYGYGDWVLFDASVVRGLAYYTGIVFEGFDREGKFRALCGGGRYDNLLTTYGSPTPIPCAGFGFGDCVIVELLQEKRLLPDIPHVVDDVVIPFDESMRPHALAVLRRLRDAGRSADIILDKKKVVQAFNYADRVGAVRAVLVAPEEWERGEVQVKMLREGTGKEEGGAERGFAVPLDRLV
UniProt A4I591, 1-473: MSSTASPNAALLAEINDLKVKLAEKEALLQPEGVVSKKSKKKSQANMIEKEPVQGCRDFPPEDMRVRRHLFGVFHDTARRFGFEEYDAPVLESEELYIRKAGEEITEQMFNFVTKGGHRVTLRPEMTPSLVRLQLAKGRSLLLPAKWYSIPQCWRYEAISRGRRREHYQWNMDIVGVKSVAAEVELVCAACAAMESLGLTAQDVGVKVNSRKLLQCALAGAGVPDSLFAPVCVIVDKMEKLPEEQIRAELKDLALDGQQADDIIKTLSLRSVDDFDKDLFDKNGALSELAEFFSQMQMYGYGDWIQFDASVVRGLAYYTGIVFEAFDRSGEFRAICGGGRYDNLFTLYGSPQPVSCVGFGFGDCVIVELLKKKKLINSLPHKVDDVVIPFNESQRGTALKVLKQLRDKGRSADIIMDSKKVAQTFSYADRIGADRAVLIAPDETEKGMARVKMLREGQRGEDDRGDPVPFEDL
UniProt P9WPC5, whole entry: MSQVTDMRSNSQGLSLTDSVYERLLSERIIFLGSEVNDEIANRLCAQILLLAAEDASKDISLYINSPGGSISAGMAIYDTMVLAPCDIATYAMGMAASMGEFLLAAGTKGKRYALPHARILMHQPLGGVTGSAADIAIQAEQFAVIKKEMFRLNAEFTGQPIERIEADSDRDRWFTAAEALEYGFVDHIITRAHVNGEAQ
UniProt P9WPC3, whole entry partner: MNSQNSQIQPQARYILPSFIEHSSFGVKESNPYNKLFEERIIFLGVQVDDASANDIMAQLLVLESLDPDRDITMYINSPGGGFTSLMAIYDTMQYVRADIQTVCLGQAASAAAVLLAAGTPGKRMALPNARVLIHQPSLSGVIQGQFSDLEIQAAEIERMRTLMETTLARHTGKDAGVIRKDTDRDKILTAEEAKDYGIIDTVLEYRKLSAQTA

A: 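Assay of Toxoplasma gondii numbers, read through their beta-galactosidase reporter with a colour substrate. Concentration: 10 µM. Higher reads as fewer parasites (inferred from which compounds were picked for retests). About 67,000 compounds were tested under these conditions; 0.38% (about 260) showed 50% or more at least once.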
B: 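Cell assay of Leishmania donovani living inside macrophages; the read-out is not stated. Tested at 30 µM. Direction is inferred from retests: higher values go with stronger inhibition. Of about 69,000 compounds tested this way, about 1,000 (1.5%) reached 50% or more in at least one test.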
C: 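Histidine-tRNA ligase, Trypanosoma cruzi CL Brener (UniProt Q4DA54). Enzyme assay of histidyl-tRNA synthetase; the read-out is not stated. Tested at 30 µM. Direction is inferred from retests: higher values go with stronger inhibition. About 69,000 compounds were tested under these conditions; 0.045% (about 31) showed 50% or more at least once.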
D: 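Histidine-tRNA ligase, Leishmania infantum (UniProt A4I591). Enzyme assay of histidyl-tRNA synthetase; the read-out is not stated. Compounds at 30 µM. Direction is inferred from retests: higher values go with stronger inhibition. The assay is labelled LdHisRS but filed under L. infantum. Size under these conditions: about 69,000 compounds, about 410 of them at 50% or above in at least one test.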
E: 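Protease assay of ClpP1P2, read by the AMC dye that it sets free. Target: ClpP1P2, Mycobacterium tuberculosis (UniProt P9WPC5 and UniProt P9WPC3). Compounds at 50 µM. Higher reads as stronger inhibition, judged from the few compounds that gave an IC50. Most other retested compounds had strongly negative values. Size under these conditions: about 69,000 compounds, about 10 of them at 50% or above in at least one test.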
F: 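Whole-parasite assay of Trypanosoma brucei over 72 hours; the read-out is not stated. Tested at 30 µM. Direction is inferred from retests: higher values go with stronger inhibition. Values scatter widely below zero; nearly all retest evidence comes from the higher of the two concentrations used. Of about 64,000 compounds tested this way, about 940 (1.5%) reached 50% or more in at least one test.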

| Compound | A | B | C | D | E | F |
|---|---|---|---|---|---|---|
| `COc1c(CNC2CCc3cc(C)ccc32)c(C)nn1C` (stereo not given) | 2.771% | 27.93% | 4.843% | 10.26% | -16.46% | - |
| `CC(NC(=O)N1CCc2ccccc21)c1nncn1C` (stereo not given) | -4.765% | -4.314% | 11.45% | 24.18% | 5.147% | -64.56% |
| `COc1cccc(-c2c[nH]c(C)n2)c1F` | 11.39% | -3.113% | 5.288% | 17.07% | -8.145% | -16.93% |
| `[H][C@]12CC[C@]([H])(CN(C(=O)c3ccncc3)C1)N(Cc1cnn(CC)c1)C2` | -5.552% | -21.9% | - | - | - | -37.48% |
| `CCOCCn1nc(C)cc1C(=O)N(C)Cc1cccc2ncccc12` | 20.84% | 19.89% | -2.041% | 16.13% | -10.6% | -42.33% |
| `Cc1ccc2cc(C3(O)CCN(C(=O)[C@@H]4CCCCN4)CC3)ccc2n1` | 9.249% | 16.54% | 1.058% | 12.12% | 9.122% | -23.23% |
| `COc1ccc(C2SCC(=O)Nc3ccsc32)cc1OC` (stereo not given) | -18.3% | 3.181% | 6.818% | 11.67% | 7.089% | -26.08% |
| `[H][C@@]12CCN(C(=O)Cc3ccccc3F)C[C@]1(COC)CCO2` | 11.21% | 23.55% | - | - | - | 3.077% |
| `O=C(c1ccno1)N1CCOC[C@H](Oc2ccc(C(F)(F)F)cc2)C1` | 6.474% | 31.57% | 7.609% | 22.97% | -3.326% | -5.215% |
| `O=C(O)C(F)(F)F.[H][C@@]12CN(C(=O)Cc3ccsc3)C[C@]1([H])OCCN2C(C)C` | -4.065% | 10.5% | - | - | - | -15.79% |
| `CC(C)n1cnc2c1C(C(=O)N(C)C)N(Cc1ccccc1)CC2.O=C(O)C(F)(F)F` (stereo not given) | 4.676% | -0.2221% | - | - | - | 2.856% |
| `Cn1cc(N2C(=O)CC[C@@H]3[C@H]2CCN3Cc2cccc(C#N)c2)cn1` | - | - | 4.762% | 11.11% | -18.7% | - |
| `COCC1CN(c2ccncn2)Cc2cnn(CC3CCCC3)c21.O=C(O)C(F)(F)F.O=C(O)C(F)(F)F` (stereo not given) | -1.724% | 28.07% | - | - | - | 18.18% |
| `Cc1ccc(OCC(O)CN2CCc3c(ncn3C3CC3)C2)cc1` (stereo not given) | -2.983% | -1.347% | 0.565% | 5.172% | -29.8% | 7.185% |
| `CCN1CCCC12CCN(C(=O)c1nccn1C)CC2.O=C(O)C(F)(F)F` | -5.567% | 12.7% | - | - | - | - |
| `CN(Cc1cccc(F)c1)C(=O)CS(=O)(=O)Cc1c(Cl)cccc1Cl` | -6.484% | 3.291% | 10.59% | 7.143% | 1.603% | 83.04% |
| `O=C(N1CCCC1)N1C[C@@H](OCc2cccnc2)[C@H]2OCCC[C@H]21` | - | - | 10.74% | 16.36% | 3.978% | - |
| `CC(C)Nc1nc(N2CCCC2)nc2c1CN(C)CC2` | -8.031% | 20.69% | 0% | 5.556% | -23.17% | -8.686% |
| `CC(C)(C)NC(=O)c1ccccc1NC(=O)c1ccncc1` | -1.311% | 11.36% | -1.786% | 7.527% | -10.12% | -16.38% |
| `c1ccc(Oc2cccc(OC34CCCN(CC3)C4)c2)cc1` (stereo not given) | 15.96% | 65.6% | 20.51% | 51.02% | -33.91% | 99.26% |
| `Cc1noc(CNc2ccc(C(=O)N3CCCC(C)C3)cc2C)n1` (stereo not given) | 11.52% | 31.58% | 4.023% | 17.39% | -3.993% | 0.7379% |
| `Cc1nn(C)c(N(C)C)c1CNCc1cccnc1-n1cncn1.Cl` | -2.643% | 21.73% | - | - | - | 7.012% |
| `Cc1nnsc1-c1nnc2sc(C(C)C)nn12` | 16.3% | 39.28% | -23.32% | -64.04% | 12.92% | -17.47% |
| `CCC(=O)N1CCN(C(=O)Nc2cccc(F)c2)[C@H]2CS(=O)(=O)C[C@H]21` | - | - | -3.448% | 17.95% | -6.03% | - |
| `CN(CCCO)C(=O)c1ccc2c(c1)nc(N1CC[C@H](O)C1)n2C` | -22.2% | 20.23% | 6.25% | 14.16% | -9.057% | -18.12% |
| `O=c1oc(-c2cccs2)nn1CC(O)c1ccc2c(c1)CCC2` (stereo not given) | 10% | 4.583% | -3.333% | 11.61% | 15.78% | -3.057% |
| `CNC(=O)c1cc2c(nc1NC(C)C)CCNCC2` | -0.4219% | -22.45% | 2.97% | -9.589% | -97.8% | -20.18% |
| `Cc1ccc2c(n1)N(CCn1cccn1)CCN(C(=O)CC1CC1)C2` | - | - | 10.17% | 20.75% | 6.572% | - |
| `CCOc1cc(C(=O)N2CCCC2)cc2occc12` | -42.65% | -14.59% | 4.018% | 25.93% | -34.9% | 2.178% |
| `COc1cc(C)ccc1OCCN1CC[C@@]2(O)CCNC[C@H]2C1` | - | - | 2.186% | 12.28% | -2.912% | - |
| `Cc1occc1C(=O)NCC(=O)NCCOc1ccc2c(c1)CCC2` | 14.6% | 21.1% | -2.128% | 25% | 8.532% | -9.349% |
| `Fc1cnc(N2CCCC3(CCN(Cc4ccco4)C3)C2)nc1` (stereo not given) | - | - | 10.92% | 15.6% | 3.953% | - |
| `CCn1cc(S(=O)(=O)N2CCCCCC2c2cc(C)no2)cn1` (stereo not given) | 6.46% | -3.215% | 5.747% | 7.143% | -11.54% | -4.685% |
| `CNc1cncc(C2CCCN2C(=O)c2ccc3oc(=O)n(C)c3c2)n1` (stereo not given) | 3.267% | -18.52% | 0.5405% | 19.44% | -11.95% | -22.01% |
| `Cn1nc2c(cc1=O)CN(Cc1nc(-c3ccsc3)no1)CC2` | -3.199% | 22.3% | 9.605% | 27.59% | -29.38% | 9.967% |
| `O=C(NC1CCc2c(ccc(=O)n2CC2CC2)C1)c1ccsc1` (stereo not given) | -11.13% | 25.32% | 6.952% | 19.66% | 3.306% | - |
| `Cc1ccc(C#N)c(N2CCC(c3nccn3Cc3cscn3)CC2)n1` | -1.652% | 4.827% | 3.734% | 24.27% | -40.94% | 31.21% |
| `Cc1cccc2c1nc(CCO)n2-c1ccc(C(=O)N2CCOCC2)o1` | -14.81% | 26.23% | 7.853% | 35.48% | -9.504% | 8.227% |
| `Cc1nc(CN2CC[C@H]3[C@H]2CCN3c2ncccn2)cs1` | - | - | 3.226% | 7.018% | 2.522% | - |
| `Cc1nc(CN2CC(CCCc3ccccn3)(C(=O)N(C)C)C2)co1` | 16.14% | 23.81% | 5.747% | 8.571% | -7.258% | 3.336% |
| `COCCO[C@H]1COCCN(Cc2ccc(OC)cc2)C1` | 4.735% | -13.22% | -4.478% | 21.62% | -9.94% | -17.87% |
| `Cl.Cl.c1ccc(COC[C@@H]2CCC[C@@]23CNCCO3)nc1` | -18% | 33.22% | - | - | - | -46.98% |

For reference, 4 entries once more:

Fc1cnc(N2CCCC3(CCN(Cc4ccco4)C3)C2)nc1 (stereo not given) read C: 10.92%; D: 15.6%; E: 3.953%.
Cc1ccc2cc(C3(O)CCN(C(=O)[C@@H]4CCCCN4)CC3)ccc2n1 read A: 9.249%; B: 16.54%; C: 1.058%; D: 12.12%; E: 9.122%; F: -23.23%.
CCOc1cc(C(=O)N2CCCC2)cc2occc12 read A: -42.65%; B: -14.59%; C: 4.018%; D: 25.93%; E: -34.9%; F: 2.178%.
COc1c(CNC2CCc3cc(C)ccc32)c(C)nn1C (stereo not given) read A: 2.771%; B: 27.93%; C: 4.843%; D: 10.26%; E: -16.46%.

Measurements from “University of Dundee, Small-Polar-MMV Screening Library” (2021), ChEMBL document CHEMBL3988442.